# Reference: publication PMC6390993
# Protein sequences, listed by entry. Tags and fused reporters are not part of them. Lines headed by an entry give the natural chain unless they say otherwise; changes in a name come on top.
# UniProt O01483: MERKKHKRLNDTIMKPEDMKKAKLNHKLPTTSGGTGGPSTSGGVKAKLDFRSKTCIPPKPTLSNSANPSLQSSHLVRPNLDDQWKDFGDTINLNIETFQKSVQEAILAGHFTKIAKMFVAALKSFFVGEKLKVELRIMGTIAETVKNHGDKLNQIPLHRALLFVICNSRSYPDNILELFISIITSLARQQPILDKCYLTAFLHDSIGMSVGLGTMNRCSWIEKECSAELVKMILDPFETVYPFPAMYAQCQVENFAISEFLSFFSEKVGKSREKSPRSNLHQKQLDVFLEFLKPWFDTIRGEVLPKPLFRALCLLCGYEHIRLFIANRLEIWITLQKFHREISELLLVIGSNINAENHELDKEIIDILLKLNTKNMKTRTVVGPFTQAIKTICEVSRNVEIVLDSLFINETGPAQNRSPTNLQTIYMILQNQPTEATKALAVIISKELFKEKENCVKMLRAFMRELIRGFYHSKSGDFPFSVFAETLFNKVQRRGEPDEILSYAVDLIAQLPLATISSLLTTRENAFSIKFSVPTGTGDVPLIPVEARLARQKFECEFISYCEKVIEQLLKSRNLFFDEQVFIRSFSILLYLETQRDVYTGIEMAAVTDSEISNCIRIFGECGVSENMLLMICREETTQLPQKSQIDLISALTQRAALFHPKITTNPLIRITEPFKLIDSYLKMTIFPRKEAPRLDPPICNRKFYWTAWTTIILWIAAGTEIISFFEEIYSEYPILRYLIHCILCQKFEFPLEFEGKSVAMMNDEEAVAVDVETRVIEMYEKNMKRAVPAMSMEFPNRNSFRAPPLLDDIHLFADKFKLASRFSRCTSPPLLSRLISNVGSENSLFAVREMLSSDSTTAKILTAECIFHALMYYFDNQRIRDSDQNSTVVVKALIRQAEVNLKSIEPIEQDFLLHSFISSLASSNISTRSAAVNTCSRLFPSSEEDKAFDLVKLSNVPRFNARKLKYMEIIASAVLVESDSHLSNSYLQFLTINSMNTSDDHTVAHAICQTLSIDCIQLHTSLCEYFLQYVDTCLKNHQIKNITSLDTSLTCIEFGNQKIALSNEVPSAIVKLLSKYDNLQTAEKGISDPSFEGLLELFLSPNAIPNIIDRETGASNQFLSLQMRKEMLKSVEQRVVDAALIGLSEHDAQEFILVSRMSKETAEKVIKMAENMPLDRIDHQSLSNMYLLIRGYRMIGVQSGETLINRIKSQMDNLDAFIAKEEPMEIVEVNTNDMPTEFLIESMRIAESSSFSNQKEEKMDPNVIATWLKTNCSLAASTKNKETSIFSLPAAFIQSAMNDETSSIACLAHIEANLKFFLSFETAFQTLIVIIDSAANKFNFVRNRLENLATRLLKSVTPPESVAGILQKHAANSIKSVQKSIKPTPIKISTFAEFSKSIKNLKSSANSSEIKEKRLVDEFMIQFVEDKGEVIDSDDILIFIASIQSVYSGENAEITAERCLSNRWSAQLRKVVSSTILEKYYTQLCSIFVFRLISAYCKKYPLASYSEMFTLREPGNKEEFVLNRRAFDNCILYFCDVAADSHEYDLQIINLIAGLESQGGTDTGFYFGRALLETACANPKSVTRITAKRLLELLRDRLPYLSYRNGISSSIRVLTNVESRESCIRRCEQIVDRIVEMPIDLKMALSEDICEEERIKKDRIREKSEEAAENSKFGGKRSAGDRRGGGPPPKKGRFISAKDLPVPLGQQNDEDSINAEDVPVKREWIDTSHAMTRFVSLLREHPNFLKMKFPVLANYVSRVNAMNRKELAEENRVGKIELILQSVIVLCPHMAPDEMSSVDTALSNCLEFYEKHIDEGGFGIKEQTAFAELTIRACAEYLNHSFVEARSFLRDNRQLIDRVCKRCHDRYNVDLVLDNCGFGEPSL
# UniProt O18167: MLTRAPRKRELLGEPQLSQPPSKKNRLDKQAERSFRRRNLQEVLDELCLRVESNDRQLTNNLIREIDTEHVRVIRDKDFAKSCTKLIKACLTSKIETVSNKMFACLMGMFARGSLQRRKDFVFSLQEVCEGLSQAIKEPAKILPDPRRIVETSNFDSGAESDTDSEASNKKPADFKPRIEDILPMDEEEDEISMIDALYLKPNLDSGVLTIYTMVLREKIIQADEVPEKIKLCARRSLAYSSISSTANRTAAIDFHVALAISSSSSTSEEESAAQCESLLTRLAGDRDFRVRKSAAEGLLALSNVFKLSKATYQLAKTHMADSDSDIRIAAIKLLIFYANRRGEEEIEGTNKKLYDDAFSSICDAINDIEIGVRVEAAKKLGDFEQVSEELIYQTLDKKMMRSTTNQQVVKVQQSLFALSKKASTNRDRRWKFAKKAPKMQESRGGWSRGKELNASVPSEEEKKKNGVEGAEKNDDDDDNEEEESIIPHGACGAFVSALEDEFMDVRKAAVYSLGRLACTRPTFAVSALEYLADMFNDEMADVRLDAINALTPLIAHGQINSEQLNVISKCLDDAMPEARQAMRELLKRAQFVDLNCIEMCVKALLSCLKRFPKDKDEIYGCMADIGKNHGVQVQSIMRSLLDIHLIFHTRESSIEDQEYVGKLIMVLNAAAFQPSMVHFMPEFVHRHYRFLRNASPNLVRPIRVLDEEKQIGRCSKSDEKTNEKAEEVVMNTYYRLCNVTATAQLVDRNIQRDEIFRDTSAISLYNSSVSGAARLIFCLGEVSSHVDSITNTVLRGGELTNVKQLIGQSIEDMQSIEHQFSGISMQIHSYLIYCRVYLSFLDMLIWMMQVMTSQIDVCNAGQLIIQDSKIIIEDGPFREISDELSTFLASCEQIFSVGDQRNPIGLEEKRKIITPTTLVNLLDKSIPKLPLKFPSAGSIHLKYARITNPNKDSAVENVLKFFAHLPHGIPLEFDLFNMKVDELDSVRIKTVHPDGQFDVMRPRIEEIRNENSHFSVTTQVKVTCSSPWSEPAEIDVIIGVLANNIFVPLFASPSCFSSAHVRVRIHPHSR
# UniProt Q9U267: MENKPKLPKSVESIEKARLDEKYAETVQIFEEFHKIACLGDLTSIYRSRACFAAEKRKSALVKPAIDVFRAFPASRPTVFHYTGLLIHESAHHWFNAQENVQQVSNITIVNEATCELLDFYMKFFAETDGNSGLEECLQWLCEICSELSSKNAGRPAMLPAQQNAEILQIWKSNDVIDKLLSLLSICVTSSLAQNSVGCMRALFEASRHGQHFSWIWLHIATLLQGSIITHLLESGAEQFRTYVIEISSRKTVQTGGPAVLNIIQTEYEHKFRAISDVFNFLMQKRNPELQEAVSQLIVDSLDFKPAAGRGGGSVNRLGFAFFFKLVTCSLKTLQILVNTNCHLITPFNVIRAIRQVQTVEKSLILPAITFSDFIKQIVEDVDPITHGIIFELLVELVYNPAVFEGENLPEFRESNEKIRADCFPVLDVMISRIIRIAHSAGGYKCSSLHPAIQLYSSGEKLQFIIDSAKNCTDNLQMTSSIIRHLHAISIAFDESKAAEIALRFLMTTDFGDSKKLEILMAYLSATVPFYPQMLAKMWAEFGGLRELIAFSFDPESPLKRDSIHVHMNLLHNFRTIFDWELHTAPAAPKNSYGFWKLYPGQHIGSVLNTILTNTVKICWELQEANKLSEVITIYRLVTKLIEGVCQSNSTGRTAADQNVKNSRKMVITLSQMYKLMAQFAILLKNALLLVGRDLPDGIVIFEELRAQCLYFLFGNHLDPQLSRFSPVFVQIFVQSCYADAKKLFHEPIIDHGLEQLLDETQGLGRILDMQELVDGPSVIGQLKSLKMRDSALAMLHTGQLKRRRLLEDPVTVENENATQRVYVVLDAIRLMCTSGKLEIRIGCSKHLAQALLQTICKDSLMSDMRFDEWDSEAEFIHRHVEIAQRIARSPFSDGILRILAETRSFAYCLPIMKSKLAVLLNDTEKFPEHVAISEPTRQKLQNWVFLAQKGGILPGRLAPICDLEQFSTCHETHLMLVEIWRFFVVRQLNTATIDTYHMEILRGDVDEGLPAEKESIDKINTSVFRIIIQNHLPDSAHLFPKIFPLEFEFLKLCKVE
# UniProt Q95ZM2: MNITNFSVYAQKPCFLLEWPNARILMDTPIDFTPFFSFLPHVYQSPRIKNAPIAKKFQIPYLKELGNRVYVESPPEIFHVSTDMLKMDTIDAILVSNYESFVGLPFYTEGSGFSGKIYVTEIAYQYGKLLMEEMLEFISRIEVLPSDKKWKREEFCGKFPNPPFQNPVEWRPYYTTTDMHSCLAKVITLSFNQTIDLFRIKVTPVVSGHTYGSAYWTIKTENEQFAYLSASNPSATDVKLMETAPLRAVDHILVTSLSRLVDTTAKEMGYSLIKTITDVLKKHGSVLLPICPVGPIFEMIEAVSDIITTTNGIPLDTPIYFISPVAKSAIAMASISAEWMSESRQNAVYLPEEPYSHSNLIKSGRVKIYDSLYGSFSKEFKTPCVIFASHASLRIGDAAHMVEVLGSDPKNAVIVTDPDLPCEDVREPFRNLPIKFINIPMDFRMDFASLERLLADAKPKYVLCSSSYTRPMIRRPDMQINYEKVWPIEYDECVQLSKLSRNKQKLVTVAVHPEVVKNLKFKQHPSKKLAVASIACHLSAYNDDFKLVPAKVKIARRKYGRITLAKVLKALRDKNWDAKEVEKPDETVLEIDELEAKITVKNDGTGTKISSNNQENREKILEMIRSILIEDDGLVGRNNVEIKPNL
# Target: INTS-6::3xFLAG::eGFP (C. elegans) (UniProt H2KZC8)
# Assay: affinity purification with mass spectrometry; anti-FLAG M2 magnetic beads (150 ul) with 30 mg protein extract of strain JCP378, 3-4 h or O/N at 4°C; washed three times with TBS (50 mM Tris HCl, 150 mM NaCl, pH 7.4); eluted by boiling in SDS sample buffer or with 3xFLAG peptide; Coomassie gel bands digested with trypsin, LC-MS/MS; WT N2 extract as control for nonspecific binding; four independent co-immunoprecipitations
row,binding,Substance
1,binds,INTS-1 (C06A5.1) (from UniProt O01483)
2,binds,INTS-4 (W04A4.5) (from UniProt O18167)
3,binds,INTS-5 (Y51A2D.7) (from UniProt Q9U267)
4,binds,INTS-9 (F19F10.12) (from UniProt Q95ZM2)

# Results are given in words; binding and its absence hold for the method and conditions named. In cells and extracts the contact can be indirect. These calls come from enrichment with a bait or labelling near it, and not all partners need be listed.
